Results deposited as PubChem BioAssay AID686938 (Drosophila RNAi Screening Center, 2013)

- Assay: 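Fly genes required for calcium entry once internal stores are emptied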 (primary screen)
- System: Drosophila S2R+ cells
- Knock-down reagent: long dsRNA against Drosophila genes, about 0.25 µg dsRNA per well, roughly 10,000 cells
- Timing: 5 days of knock-down before the calcium assay
- Conditions: thapsigargin (SERCA pump blocker) to empty calcium stores; entry signal taken 4 min after adding it
- Measured: 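Per-well fluo-4 fluorescence in two replicates, unnormalised, measured in resting cells and 4 min after store depletion by the SERCA blocker thapsigargin; ratio of the two present in few wells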
- Direction: calcium entry signal: higher = stronger calcium signal after store depletion; entry to resting ratio: higher = more calcium entry relative to resting level; resting calcium signal: higher = higher resting calcium signal
- Active means: 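Called when the plate z-score of the entry-to-rest ratio, mean of duplicates, falls below −3; wells with low overall dye signal (Fmax z below −2) or more than five off-targets excluded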
- Calls: active = strongly reduced calcium entry; inactive = no strong reduction
The screen tested about 23,000 reagents; this is a random part of those that have a named target and a result. Over the whole deposit, 75 (0.33%) got an active call. 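Raw plate signals without normalisation; calls rest on plate z-scores that were not deposited; ratio present for only 364 wells.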 Entries without a mark were called inactive. Names joined by + are all predicted targets of the reagent. Not given: the dose of the treatment.

no.	Gene	PubChem SID	calcium entry signal, replicate 1 (fluorescence units)	calcium entry signal, replicate 2 (fluorescence units)	entry to resting ratio	resting calcium signal, replicate 1 (fluorescence units)	resting calcium signal, replicate 2 (fluorescence units)
1	CG11406	SID104183802	2.55e7	4.04e7		1.33e7	1.72e7
2	CG11406	SID104183900	3.39e7	3.68e7		1.73e7	1.73e7
3	NimB2 (Nimrod B2)	SID104202050	4.57e7	3.08e7		2.43e7	1.43e7
4	lectin-24Db	SID104180345	5.26e7			2.78e7	
5	CR42545 (pseudo)	SID104183501	3.61e7	4.24e7		1.90e7	1.90e7
6	Gem4b + Gem4c + Glos	SID104198036	2.17e7	4.34e7		1.24e7	1.99e7
7	CG7560	SID104190671	3.24e7	4.46e7		1.67e7	1.84e7
8	Rac2	SID104191054	2.23e7	3.19e7		1.09e7	1.36e7
9	CG32115	SID104202022	3.03e7	5.35e7		1.68e7	2.23e7
10	Akap200 (A kinase anchor protein 200)	SID104181656	3.98e7			2.13e7	
11	dmt (dalmatian)	SID104196724	2.12e7	2.63e7		1.49e7	1.74e7
12	mv (mauve)	SID104188000	2.61e7	2.73e7		1.30e7	1.30e7
13	mv (mauve)	SID104188362	2.45e7	2.54e7		1.30e7	1.24e7
14	CG31468	SID104193429	3.27e7	2.97e7		1.49e7	1.43e7
15	IntS6 (Integrator 6)	SID104198073	2.56e7	2.84e7		1.29e7	1.44e7
16	Gnf1 (Germ line transcription factor 1)	SID104192143	2.56e7 (active)	3.57e7		1.69e7	2.20e7
17	CG11634	SID104183492	3.13e7	4.72e7		1.51e7	1.97e7
18	CG5001	SID104180465	3.66e7	4.95e7		1.81e7	2.21e7
19	CG31407	SID104192553	3.42e7	5.38e7		1.71e7	2.37e7
20	CG16787	SID104184074	3.58e7	4.08e7		1.82e7	1.91e7
21	lncRNA:CR42862 (long non-coding RNA:CR42862)	SID104188140	4.43e7	4.02e7		1.99e7	2.01e7
22	CG15764	SID104197862	3.41e7	3.87e7		1.75e7	1.80e7
23	CG3880	SID104184220	4.66e7	4.37e7		2.28e7	2.01e7
24	CG3880	SID104201166	3.36e7	3.44e7		1.80e7	1.61e7
25	CG32022	SID104189470	3.36e7	5.48e7		1.59e7	2.37e7
26	CG43075	SID104198866	3.83e7	3.69e7		1.80e7	1.76e7
27	CG8159	SID104196184	4.82e7	3.30e7		2.29e7	1.52e7
28	Sik2 (Salt-inducible kinase 2)	SID104198314	5.68e7	6.01e7	2.2	2.57e7	2.37e7
29	dib (disembodied)	SID104188503	4.78e7	2.97e7		3.06e7	1.33e7
30	Tdc2 (Tyrosine decarboxylase 2)	SID104184791	4.35e7	5.49e7		2.21e7	2.33e7
31	E(Pc) (Enhancer of Polycomb)	SID104185073	6.18e7 (active)	9.44e7		3.97e7	6.44e7
32	E(Pc) (Enhancer of Polycomb)	SID104187200	2.94e7 (active)	5.05e7		1.97e7	3.49e7
33	CG1983	SID104195202	2.88e7	2.88e7		1.61e7	1.37e7
34	CG30110	SID104185478	3.68e7	3.98e7		1.81e7	1.98e7
35	p-cup (presidents-cup)	SID104199305	2.29e7	2.09e7		1.30e7	1.09e7
36	CG9095	SID104199942	4.02e7	2.40e7		2.15e7	1.17e7
37	CG42366	SID104182552	3.82e7	5.94e7		2.01e7	2.30e7
38	CG42366	SID104202654	3.49e7	3.99e7		1.65e7	1.83e7
39	Iswi (Imitation SWI)	SID104187238	2.93e7	3.11e7		1.70e7	1.66e7
40	CG9853	SID104192135	3.56e7	5.53e7		1.73e7	2.64e7
41	CG9853	SID104202199	2.58e7	4.50e7		1.36e7	1.95e7
42	CG13921	SID104188182	3.97e7	3.63e7		1.77e7	1.84e7
43	GABA-B-R1 (metabotropic GABA-B receptor subtype 1)	SID104201620	3.32e7	5.15e7		1.63e7	2.53e7
44	ppk8 (pickpocket 8)	SID104197061	4.54e7	3.65e7		2.45e7	1.62e7
45	Obp56d (Odorant-binding protein 56d)	SID104185856	5.31e7	4.77e7		2.16e7	2.20e7
46	Fas3 (Fasciclin 3)	SID104181430	3.05e7	3.27e7		1.76e7	1.61e7
47	Fas3 (Fasciclin 3)	SID104183118	4.96e7	4.05e7		2.20e7	1.80e7
48	Fas3 (Fasciclin 3)	SID104202137	4.44e7	3.31e7		2.54e7	1.54e7
49	Ilp8 (Insulin-like peptide 8)	SID104189868	3.46e7	4.56e7		1.71e7	1.69e7
50	pall (pallbearer)	SID104190156	4.08e7	3.91e7		3.05e7	1.63e7
51	CR42546 (pseudo)	SID104183503	3.10e7	4.24e7		1.62e7	1.85e7
52	Rhau (RHAU helicase)	SID104182992	2.37e7			1.29e7	
53	CG7214	SID104182820	1.75e7	2.58e7		1.23e7	1.73e7
54	CG7214	SID104201507	2.80e7	4.75e7		1.34e7	2.24e7
55	CG18765	SID104195184	4.67e7	3.84e7		2.14e7	2.06e7
56	CG11663	SID104197585	4.25e7	5.50e7	1.9	2.20e7	2.34e7
57	CG11663	SID104202420	3.06e7	3.39e7		1.65e7	1.55e7
58	djl (don juan like)	SID104192370	4.33e7	4.15e7		2.31e7	1.87e7
59	CG8306	SID104186933	3.62e7	3.36e7		1.71e7	1.78e7
60	Ccz1 (Caffeine, calcium, zinc sensitivity 1)	SID104188231	3.35e7	4.50e7		1.93e7	2.16e7
61	lncRNA:CR33218 (long non-coding RNA:CR33218)	SID104202301	4.56e7	3.79e7		2.06e7	1.58e7
62	CG34155	SID104193783	4.38e7	2.85e7		2.00e7	1.20e7
63	AANATL5 (Arylalkylamine N-acetyltransferase-like 5)	SID104185786	4.26e7	5.48e7		1.80e7	2.49e7
64	D2hgdh (D-2-hydroxyglutaric acid dehydrogenase)	SID104198369	3.22e7	3.81e7		1.47e7	1.84e7
65	lncRNA:CR32660 (long non-coding RNA:CR32660)	SID104202322	2.42e7	2.73e7		1.24e7	1.21e7
66	CG15365	SID104197830	2.23e7	2.59e7		1.36e7	1.52e7
67	CG15365	SID104202378	4.80e7	3.22e7		2.20e7	1.59e7
68	rdgB (retinal degeneration B)	SID104200157	4.11e7	2.65e7		1.79e7	1.39e7
69	CG15155	SID104182248	4.83e7	3.16e7		2.09e7	1.60e7
70	CG5727	SID104182674	5.18e7			2.60e7	
71	CG9733	SID104196341	2.73e7	3.79e7		1.51e7	1.74e7
72	TrpRS-m (Tryptophanyl-tRNA synthetase, mitochondrial)	SID104190640	3.77e7	3.77e7		1.68e7	2.65e7
73	CG1674	SID104196899	4.11e7	3.54e7		1.88e7	1.40e7
74	CG1674	SID104196934	3.41e7	4.93e7	2.2	1.54e7	1.95e7
75	twin	SID104195051	3.50e7	3.07e7		1.81e7	1.65e7
76	twin	SID104195623	4.71e7	4.26e7		2.41e7	1.73e7
77	twin	SID104201135	2.30e7	2.59e7		1.23e7	1.24e7
